Results as given in PubChem BioAssay AID248 (DTP/NCI, 2004).
The list is a part of this screen's results and no random one: it gathers tests that were run many times, whatever their T/C, doses with no T/C, and many T/C values between a quarter and a half above the control. Other doses and runs of a compound stand elsewhere. T/C: endpoint of the treated group in % of that of the vehicle group. Some doses have a count of surviving animals in place of a T/C: the source holds a T/C of zero for them, seemingly a mark for toxic or unscored doses. Some doses without a T/C left all or most animals alive at the check, yet need not have been tolerated: the source hardly ever lists a survival T/C far under the control, and the zero likely stands for such cases as well. Counts of survivors are from the toxicity check (mostly the fifth day) where no day follows; animals may have died later. Schedule codes are those of the source, read here as Q, the interval in days (D) or hours (H), X, the number of doses. Some schedule codes hold Z or #, which are not explained here. Where survival is the endpoint, the PubChem record calls one and a half times the control and up active, and a quarter to a half above the control has no call in these data; cut-offs in other NCI protocols can differ. Some T/C values carry the count of animals alive at the toxicity check (mostly the fifth day); where none is given, no animal had died by that day. Some entries hold several experiments; the values are given in rising order.

Tested on: L1210 leukemia ip in BDF1 mice, survival T/C
Assay: NCI In Vivo Anticancer Drug Screen. Data for tumor model L1210 Leukemia (intraperitoneal) in B6D2F1 (BDF1) mice
Conditions: T/C endpoint: mean survival time, higher T/C = longer survival
[1] = dose: 400.0 mg/kg/injection, schedule: Q04DX003 (ip), vehicle: saline with Tween-80
[2] = dose: 400.0 mg/kg/injection, schedule: Q01DX001 (ip), vehicle: saline
[3] = dose: 50.0 mg/kg/injection, schedule: Q01DX009 (ip), vehicle: saline with Tween-80
[4] = dose: 200.0 mg/kg/injection, schedule: Q04DX002 (ip), vehicle: saline with Tween-80
[5] = dose: 400.0 mg/kg/injection, schedule: Q04DX002 (ip), vehicle: saline with Tween-80
[6] = dose: 400.0 mg/kg/injection, schedule: Q01DX009 (ip), vehicle: saline with Tween-80
[7] = dose: 100.0 mg/kg/injection, schedule: Q04DX003 (ip), vehicle: saline
[8] = dose: 400.0 mg/kg/injection, schedule: Q04DX003 (ip), vehicle: saline
[9] = dose: 400.0 mg/kg/injection, schedule: Q01DX009 (ip), vehicle: Klucel (hydroxypropylcellulose) (HPC)
[10] = dose: 400.0 mg/kg/injection, schedule: Q04DX003 (ip), vehicle: Klucel (hydroxypropylcellulose) (HPC)
[11] = dose: 200.0 mg/kg/injection, schedule: Q04DX003 (ip), vehicle: Klucel (hydroxypropylcellulose) (HPC)
[12] = dose: 400.0 mg/kg/injection, schedule: Q01DX001 (ip), vehicle: Klucel (hydroxypropylcellulose) (HPC)

C/C(=N\NC(N)=S)c1ccccc1
survivor count (dose: 40.0 mg/kg/injection, schedule: Q01DX009 (ip), vehicle: Klucel (hydroxypropylcellulose) (HPC)): 3 of 6

CCC(=S)Nc1ccc(Cl)cc1
survivor count [1]: 2 of 6

CC[n+]1c(COCCOc2ccccc2)sc2cc3c(cc21)OCO3
survivor count (dose: 200.0 mg/kg/injection, schedule: Q01DX001 (ip), vehicle: saline): 2 of 6
survivor count [2]: 1 of 6

CCCC(=O)Oc1ccc(/C=N/NC(N)=S)nc1
T/C [3]: 132 % of control
T/C [4]: 133 % of control
T/C [5]: 133 % of control

COc1ccc(OC)c(NC(=S)NC(=O)c2ccccc2F)c1
survivor count [6]: 6 of 6

CC(=O)CC(=O)NCc1cccnc1
survivor count [7]: 6 of 6

CC(C)(C)C([NH-])=O.CC(C)(C)C([NH-])=O.[Cl][Pt+2][Cl]
survivor count (dose: 50.0 mg/kg/injection, schedule: Q01DX009 (ip), vehicle: saline): 0 of 6
survivor count [7]: 1 of 6
survivor count (dose: 200.0 mg/kg/injection, schedule: Q04DX003 (ip), vehicle: saline): 0 of 6
survivor count [8]: 0 of 6

O=NN(CC(F)(F)F)C(=O)NCC(F)(F)F
survivor count (dose: 750.0 mg/kg/injection, schedule: Q01DX001 (ip), vehicle: other): 0 of 6
survivor count (dose: 1000.0 mg/kg/injection, schedule: Q01DX001 (ip), vehicle: other): 0 of 6
survivor count (dose: 1250.0 mg/kg/injection, schedule: Q01DX001 (ip), vehicle: other): 0 of 6
survivor count (dose: 1500.0 mg/kg/injection, schedule: Q01DX001 (ip), vehicle: other): 0 of 6

O=C(CC(c1ccccc1)c1c(O)c2ccccc2oc1=O)c1ccccc1 (configuration not stated)
survivor count (dose: 6.25 mg/kg/injection, schedule: Q01DX009 (ip), vehicle: saline with Tween-80): 5 of 6
survivor count (dose: 12.5 mg/kg/injection, schedule: Q01DX009 (ip), vehicle: saline with Tween-80): 5 of 6
survivor count (dose: 25.0 mg/kg/injection, schedule: Q01DX009 (ip), vehicle: saline with Tween-80): 1 of 6
survivor count [3]: 3 of 6
survivor count (dose: 100.0 mg/kg/injection, schedule: Q01DX009 (ip), vehicle: saline with Tween-80): 0 of 6
survivor count (dose: 200.0 mg/kg/injection, schedule: Q01DX009 (ip), vehicle: saline with Tween-80): 1 of 6
survivor count [6]: 4 of 6

C=CCOC(=O)Oc1ccccc1Cl
survivor count [9]: 0 of 6
survivor count [10]: 6 of 6

CC[CH2][Sn]([CH2]CC)([CH2]CC)[O]C(=O)CN1CCC[CH]([Hg][c]2cccnc2)C1 (configuration not stated)
survivor count [2]: 0 of 6

O=C(N/C=C/NC(=O)NCc1ccco1)NCc1ccco1
survivor count [9]: 6 of 6

CCCCOc1ccc(C=Nc2ccc(C)cc2)cc1
survivor count (dose: 200.0 mg/kg/injection, schedule: Q01DX009 (ip), vehicle: Klucel (hydroxypropylcellulose) (HPC)): 6 of 6

CC(=O)CC(C)(C)N
survivor count [1]: 2 of 6

S=P(S)(Oc1ccc(Cl)cc1Cl)Oc1ccc(Cl)cc1Cl.[Cd]
survivor count (dose: 100.0 mg/kg/injection, schedule: Q04DX002 (ip), vehicle: saline with Tween-80): 1 of 3
survivor count [4]: 0 of 3
survivor count [5]: 0 of 3

CCN(CC)c1ccc(C=Nc2cccc(C(F)(F)F)c2)cc1
survivor count [9]: 4 of 6

N=C(N)SCCCCSC(=N)N
survivor count (dose: 200.0 mg/kg/injection, schedule: Q01DX009 (ip), vehicle: saline): 2 of 6
survivor count (dose: 400.0 mg/kg/injection, schedule: Q01DX009 (ip), vehicle: saline): 0 of 6

CCCCCCCCC[n+]1cccc(C(N)=O)c1
survivor count (dose: 200.0 mg/kg/injection, schedule: Q04DX003 (ip), vehicle: saline with Tween-80): 0 of 6
survivor count [1]: 0 of 6

CCCCOP(=O)(OCCCC)O/C(C)=C(\C)OP(=O)(OCCCC)OCCCC
survivor count (dose: 350.0 mg/kg/injection, schedule: Q01DX009 (ip), vehicle: carboxymethylcellulose (CMC)): 1 of 6

Clc1ccc(SCN2CCCCC2)cc1
survivor count [11]: 2 of 6
survivor count [10]: 0 of 6

CN(CCCl)Cc1ccccc1
T/C (dose: 12.3 mg/kg/injection, schedule: Q01DX Z (ip), vehicle: methylcellulose (MC)): 114, 114 [5 of 6 alive], 129, 131 % of control
T/C (dose: 18.8 mg/kg/injection, schedule: Q01DX Z (ip), vehicle: methylcellulose (MC)): 129 % of control [5 of 6 alive]
T/C (dose: 28.0 mg/kg/injection, schedule: Q01DX Z (ip), vehicle: methylcellulose (MC)): 131 % of control
T/C (dose: 42.0 mg/kg/injection, schedule: Q01DX Z (ip), vehicle: methylcellulose (MC)): 98, 100, 105, 114 % of control [5 of 6 alive]
survivor count (dose: 100.0 mg/kg/injection, schedule: Q01DX009 (ip), vehicle: Klucel (hydroxypropylcellulose) (HPC)): 5 of 6
survivor count [11]: 1 of 6

CCCCNC(C)(C)COC(=O)/C=C/c1ccc(OCCCC)cc1
survivor count [2]: 0 of 4
survivor count (dose: 400.0 mg/kg/injection, schedule: Q01DX015 (ip), vehicle: saline): 2 of 6
survivor count [1]: 0 of 6

CN(CCN(C)P(=O)(N1CC1)N1CC1)P(=O)(N1CC1)N1CC1
T/C (dose: 10.0 mg/kg/injection, schedule: Q01DX Z (ip), vehicle: saline): 138 % of control

N#C/C(N)=C(\C#N)N=CC=N/C(C#N)=C(/N)C#N
survivor count (dose: 200.0 mg/kg/injection, schedule: Q01DX001 (ip), vehicle: Klucel (hydroxypropylcellulose) (HPC)): 0 of 6
survivor count [12]: 0 of 6

CC(/C=N/N(C)C)=N\N(C)C
survivor count [8]: 0 of 6

COc1cc(C=Nc2cccc(Cl)c2)ccc1N(CCCl)CCCl
survivor count (dose: 50.0 mg/kg/injection, schedule: Q01DX015 (ip), vehicle: carboxymethylcellulose (CMC)): 4 of 6
T/C (dose: 50.0 mg/kg/injection, schedule: Q01DX Z (ip), vehicle: carboxymethylcellulose (CMC)): 133 % of control [4 of 6 alive]
survivor count (dose: 75.0 mg/kg/injection, schedule: Q01DX015 (ip), vehicle: carboxymethylcellulose (CMC)): 2 of 6
survivor count (dose: 100.0 mg/kg/injection, schedule: Q01DX015 (ip), vehicle: carboxymethylcellulose (CMC)): 1 of 6
survivor count (dose: 100.0 mg/kg/injection, schedule: Q01DX Z (ip), vehicle: carboxymethylcellulose (CMC)): 3 of 6

CCCC(C(=O)O)(c1ccccc1)c1ccccc1
survivor count (dose: 400.0 mg/kg/injection, schedule: Q04DX002 (ip), vehicle: gum acacia): 2 of 3

N/N=C1/CCc2ccccc21
survivor count [12]: 0 of 6

NCCNC12CC3CC(CC(C3)C1)C2
survivor count (dose: 400.0 mg/kg/injection, schedule: Q04DX002 (ip), vehicle: saline): 1 of 3
